Assay: Example 4a: ROC, sensitivity/specificity and predictive value analysis of exhaled markers
Assay type: in vivo, human
Details: for Sensitivity / Specificity: at cut-off; for Cut-off: exhaled marker

SMILES	Sensitivity (5 min)	Specificity (5 min)	Cut-off (5 min) [ppb]	Sensitivity (10 min)	Specificity (10 min)	Cut-off (10 min) [ppb]	Sensitivity (15 min)	Specificity (15 min)	Cut-off (15 min) [ppb]	Sensitivity (20 min)	Specificity (20 min)	Cut-off (20 min) [ppb]	Sensitivity (30 min)	Specificity (30 min)	Cut-off (30 min) [ppb]	Sensitivity (45 min)	Specificity (45 min)	Cut-off (45 min) [ppb]	Sensitivity (60 min)	Specificity (60 min)	also measured
CCC(C)=O [Formulation 2-butanone, 2-butanone]	0.77	1.00	20.9	1.00	1.00	15.1	1.00	1.00	29.8	1.00	1.00	40.1	1.00	1.00	9.2	1.00	1.00	2.1	1.00	1.00	Cut-off (60 min): 2.0 ppb; ROC Area (95% confidence interval) (Time 5 min): 0.88 (0.81-0.96); ROC Area (95% confidence interval) (Time 10 min): 1.00 (1.00-1.00); ROC Area (95% confidence interval) (Time 15 min): 1.00 (1.00-1.00); ROC Area (95% confidence interval) (Time 20 min): 1.00 (1.00-1.00); ROC Area (95% confidence interval) (Time 30 min): 1.00 (1.00-1.00); ROC Area (95% confidence interval) (Time 45 min): 1.00 (1.00-1.00); ROC Area (95% confidence interval) (Time 60 min): 1.00 (1.00-1.00)
CCCC(C)=O [Formulation 2-pentanone, 2-pentanone]	0.87	1.00	29.1	1.00	1.00	56.5	1.00	1.00	59.1	1.00	1.00	57.5	1.00	1.00	27.6	1.00	1.00	10.0	1.00	1.00	Cut-off (60 min): 3.5 ppb; ROC Area (95% confidence interval) (Time 5 min): 0.93 (0.87-0.99); ROC Area (95% confidence interval) (Time 10 min): 1.00 (1.00-1.00); ROC Area (95% confidence interval) (Time 15 min): 1.00 (1.00-1.00); ROC Area (95% confidence interval) (Time 20 min): 1.00 (1.00-1.00); ROC Area (95% confidence interval) (Time 30 min): 1.00 (1.00-1.00); ROC Area (95% confidence interval) (Time 45 min): 1.00 (1.00-1.00); ROC Area (95% confidence interval) (Time 60 min): 1.00 (1.00-1.00)

— patent publication US20170074857A1, “MEDICATION ADHERENCE MONITORING DEVICE” (UNIVERSITY OF FLORIDA RESEARCH FOUNDATION, INC., priority 2014, published 2017)
